Experimental data published in the supplement of paper PMC10849652.
The list shows a part of the results. Residues, ends and D or L forms follow the SMILES beside them. *: point of attachment. Cbz = O=C(OCc1ccccc1)*

Protein sequences, listed by entry. Tags and fused reporters are not part of them. Lines headed by an entry give the natural chain unless they say otherwise; changes in a name come on top.
UniProt Q96RN5: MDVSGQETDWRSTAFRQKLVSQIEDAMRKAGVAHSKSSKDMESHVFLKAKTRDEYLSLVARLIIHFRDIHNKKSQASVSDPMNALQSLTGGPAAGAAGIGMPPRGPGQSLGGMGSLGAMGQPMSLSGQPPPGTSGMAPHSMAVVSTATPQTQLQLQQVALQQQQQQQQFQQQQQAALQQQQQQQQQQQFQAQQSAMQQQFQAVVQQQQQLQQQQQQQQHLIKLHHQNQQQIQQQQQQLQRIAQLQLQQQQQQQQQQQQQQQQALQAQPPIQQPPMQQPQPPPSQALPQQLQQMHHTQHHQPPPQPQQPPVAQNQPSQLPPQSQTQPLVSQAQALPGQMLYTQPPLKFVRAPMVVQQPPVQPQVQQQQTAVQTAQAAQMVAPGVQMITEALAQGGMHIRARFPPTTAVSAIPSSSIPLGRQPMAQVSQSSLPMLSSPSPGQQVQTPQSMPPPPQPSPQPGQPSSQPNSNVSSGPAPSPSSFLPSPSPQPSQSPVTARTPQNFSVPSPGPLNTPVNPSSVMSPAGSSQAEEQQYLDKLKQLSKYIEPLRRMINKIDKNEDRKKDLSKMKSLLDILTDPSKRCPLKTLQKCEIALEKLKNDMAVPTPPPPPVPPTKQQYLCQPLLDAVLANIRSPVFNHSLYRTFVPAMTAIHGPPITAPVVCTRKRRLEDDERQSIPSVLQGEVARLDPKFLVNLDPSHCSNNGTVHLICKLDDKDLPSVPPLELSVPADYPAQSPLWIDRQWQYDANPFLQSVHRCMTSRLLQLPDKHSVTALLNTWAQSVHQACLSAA
UniProt P43243: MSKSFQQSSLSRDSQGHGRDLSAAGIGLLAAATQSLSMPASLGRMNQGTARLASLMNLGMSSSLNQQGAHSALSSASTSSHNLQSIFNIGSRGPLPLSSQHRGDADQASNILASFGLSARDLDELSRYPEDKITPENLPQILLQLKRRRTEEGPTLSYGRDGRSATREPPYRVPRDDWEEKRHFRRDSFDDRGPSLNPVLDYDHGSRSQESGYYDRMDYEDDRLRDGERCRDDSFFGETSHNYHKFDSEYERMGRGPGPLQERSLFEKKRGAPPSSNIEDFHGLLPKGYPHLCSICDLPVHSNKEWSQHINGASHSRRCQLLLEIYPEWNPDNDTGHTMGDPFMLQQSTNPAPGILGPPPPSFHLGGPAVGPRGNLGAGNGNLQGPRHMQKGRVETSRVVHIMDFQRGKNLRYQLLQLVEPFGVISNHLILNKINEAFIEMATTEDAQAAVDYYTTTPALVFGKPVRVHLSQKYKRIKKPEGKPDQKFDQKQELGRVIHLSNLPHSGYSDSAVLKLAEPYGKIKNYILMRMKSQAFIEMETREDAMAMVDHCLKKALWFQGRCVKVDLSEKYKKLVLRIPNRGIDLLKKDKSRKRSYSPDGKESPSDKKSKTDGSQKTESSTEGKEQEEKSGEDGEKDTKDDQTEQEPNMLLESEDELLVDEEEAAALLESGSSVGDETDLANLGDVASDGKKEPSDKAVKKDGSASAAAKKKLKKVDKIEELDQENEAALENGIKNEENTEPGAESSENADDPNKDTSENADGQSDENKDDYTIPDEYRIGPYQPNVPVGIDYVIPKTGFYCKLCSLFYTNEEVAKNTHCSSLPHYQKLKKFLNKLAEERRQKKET
UniProt Q9UBP6: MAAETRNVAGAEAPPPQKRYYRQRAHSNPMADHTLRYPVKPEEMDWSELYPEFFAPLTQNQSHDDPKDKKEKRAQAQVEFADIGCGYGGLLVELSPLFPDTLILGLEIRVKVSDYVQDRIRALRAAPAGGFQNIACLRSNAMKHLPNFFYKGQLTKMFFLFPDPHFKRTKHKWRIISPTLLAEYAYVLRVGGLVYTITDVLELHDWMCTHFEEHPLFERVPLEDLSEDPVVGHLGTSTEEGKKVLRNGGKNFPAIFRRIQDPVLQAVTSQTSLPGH
UniProt Q96GX5: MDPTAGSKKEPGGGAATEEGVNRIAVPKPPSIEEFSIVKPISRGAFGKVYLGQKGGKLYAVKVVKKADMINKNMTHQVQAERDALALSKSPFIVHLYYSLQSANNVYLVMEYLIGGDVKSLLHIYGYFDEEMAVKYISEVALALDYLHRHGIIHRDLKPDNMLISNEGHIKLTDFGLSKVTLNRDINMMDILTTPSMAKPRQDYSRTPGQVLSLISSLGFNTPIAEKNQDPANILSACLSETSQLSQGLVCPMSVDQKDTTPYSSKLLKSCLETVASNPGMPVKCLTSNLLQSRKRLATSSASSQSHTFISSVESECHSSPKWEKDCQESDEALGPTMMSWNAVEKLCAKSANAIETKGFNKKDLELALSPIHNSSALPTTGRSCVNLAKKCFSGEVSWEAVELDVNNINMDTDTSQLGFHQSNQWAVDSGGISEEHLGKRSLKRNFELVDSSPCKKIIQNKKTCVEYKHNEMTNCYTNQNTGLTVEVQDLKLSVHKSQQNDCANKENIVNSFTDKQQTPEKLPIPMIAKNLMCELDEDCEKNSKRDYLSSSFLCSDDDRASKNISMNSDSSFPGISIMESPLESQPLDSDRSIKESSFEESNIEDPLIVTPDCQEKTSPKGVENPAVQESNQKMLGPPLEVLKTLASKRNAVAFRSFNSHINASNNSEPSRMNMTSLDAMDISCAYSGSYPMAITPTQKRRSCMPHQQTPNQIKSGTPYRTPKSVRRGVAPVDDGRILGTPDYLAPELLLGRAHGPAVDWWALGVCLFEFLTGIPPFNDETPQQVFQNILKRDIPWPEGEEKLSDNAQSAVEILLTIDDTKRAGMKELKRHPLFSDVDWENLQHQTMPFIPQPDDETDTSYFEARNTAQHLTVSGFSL
UniProt Q86W50: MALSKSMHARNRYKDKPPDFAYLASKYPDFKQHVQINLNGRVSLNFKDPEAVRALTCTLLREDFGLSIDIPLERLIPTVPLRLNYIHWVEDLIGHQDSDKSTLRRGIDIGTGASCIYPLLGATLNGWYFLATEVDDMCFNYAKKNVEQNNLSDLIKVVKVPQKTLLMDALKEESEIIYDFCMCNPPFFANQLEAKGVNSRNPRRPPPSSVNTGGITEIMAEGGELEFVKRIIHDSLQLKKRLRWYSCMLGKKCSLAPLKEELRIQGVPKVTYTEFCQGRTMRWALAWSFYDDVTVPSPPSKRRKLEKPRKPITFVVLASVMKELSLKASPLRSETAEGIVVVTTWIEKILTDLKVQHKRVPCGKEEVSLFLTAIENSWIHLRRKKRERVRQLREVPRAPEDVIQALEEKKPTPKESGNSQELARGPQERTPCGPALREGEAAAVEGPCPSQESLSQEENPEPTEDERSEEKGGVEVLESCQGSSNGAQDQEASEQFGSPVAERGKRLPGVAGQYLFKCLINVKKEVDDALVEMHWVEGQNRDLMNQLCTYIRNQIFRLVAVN
UniProt Q9BV79: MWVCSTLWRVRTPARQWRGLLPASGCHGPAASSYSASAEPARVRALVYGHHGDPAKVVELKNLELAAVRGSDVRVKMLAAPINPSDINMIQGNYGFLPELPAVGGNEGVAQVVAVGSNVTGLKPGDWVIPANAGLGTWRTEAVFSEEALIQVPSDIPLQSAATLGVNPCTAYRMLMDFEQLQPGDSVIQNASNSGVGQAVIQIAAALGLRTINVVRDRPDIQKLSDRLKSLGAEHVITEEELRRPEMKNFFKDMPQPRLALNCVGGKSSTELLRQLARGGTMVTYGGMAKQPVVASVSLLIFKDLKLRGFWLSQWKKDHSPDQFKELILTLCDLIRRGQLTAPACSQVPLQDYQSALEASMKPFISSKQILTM
UniProt Q68D91: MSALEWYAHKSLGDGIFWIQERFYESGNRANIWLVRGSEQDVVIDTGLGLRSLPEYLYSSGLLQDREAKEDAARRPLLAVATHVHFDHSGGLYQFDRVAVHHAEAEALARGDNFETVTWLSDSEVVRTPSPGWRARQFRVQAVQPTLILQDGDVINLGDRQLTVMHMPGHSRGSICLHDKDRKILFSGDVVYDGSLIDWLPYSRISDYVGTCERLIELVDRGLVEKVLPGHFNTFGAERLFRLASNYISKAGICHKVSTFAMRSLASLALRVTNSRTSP
UniProt P48163: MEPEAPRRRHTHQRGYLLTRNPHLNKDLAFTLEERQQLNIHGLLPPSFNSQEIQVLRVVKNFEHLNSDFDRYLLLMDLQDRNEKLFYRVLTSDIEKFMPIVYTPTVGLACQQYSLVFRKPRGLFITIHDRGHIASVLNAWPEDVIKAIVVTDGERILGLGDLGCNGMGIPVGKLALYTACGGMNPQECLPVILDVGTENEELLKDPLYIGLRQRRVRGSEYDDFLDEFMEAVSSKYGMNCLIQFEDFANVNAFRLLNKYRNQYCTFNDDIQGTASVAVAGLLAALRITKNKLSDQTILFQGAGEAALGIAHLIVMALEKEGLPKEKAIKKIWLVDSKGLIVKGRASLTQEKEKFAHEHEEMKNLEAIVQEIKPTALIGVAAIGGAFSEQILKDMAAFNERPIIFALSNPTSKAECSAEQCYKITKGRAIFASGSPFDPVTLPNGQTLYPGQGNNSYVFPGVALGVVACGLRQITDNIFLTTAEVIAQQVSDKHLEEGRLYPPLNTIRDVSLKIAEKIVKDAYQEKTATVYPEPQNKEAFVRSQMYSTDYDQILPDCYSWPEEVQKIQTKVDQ
UniProt Q96AQ8: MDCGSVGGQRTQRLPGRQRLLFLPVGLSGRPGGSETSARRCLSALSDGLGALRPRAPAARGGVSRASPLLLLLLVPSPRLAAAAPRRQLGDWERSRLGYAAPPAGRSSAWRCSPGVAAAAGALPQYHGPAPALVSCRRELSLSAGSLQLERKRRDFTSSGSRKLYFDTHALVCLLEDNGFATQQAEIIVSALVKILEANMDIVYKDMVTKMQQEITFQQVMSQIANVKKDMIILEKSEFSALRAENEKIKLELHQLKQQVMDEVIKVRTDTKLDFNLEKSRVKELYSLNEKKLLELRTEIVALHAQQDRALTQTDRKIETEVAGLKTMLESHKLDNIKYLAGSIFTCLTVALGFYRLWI
UniProt Q9H944: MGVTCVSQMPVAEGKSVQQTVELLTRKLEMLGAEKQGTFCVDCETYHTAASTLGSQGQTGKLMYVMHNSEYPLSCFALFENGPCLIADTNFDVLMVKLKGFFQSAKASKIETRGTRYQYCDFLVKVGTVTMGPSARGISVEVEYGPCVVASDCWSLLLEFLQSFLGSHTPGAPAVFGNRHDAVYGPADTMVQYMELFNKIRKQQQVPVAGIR
UniProt P43121, whole entry, looked up: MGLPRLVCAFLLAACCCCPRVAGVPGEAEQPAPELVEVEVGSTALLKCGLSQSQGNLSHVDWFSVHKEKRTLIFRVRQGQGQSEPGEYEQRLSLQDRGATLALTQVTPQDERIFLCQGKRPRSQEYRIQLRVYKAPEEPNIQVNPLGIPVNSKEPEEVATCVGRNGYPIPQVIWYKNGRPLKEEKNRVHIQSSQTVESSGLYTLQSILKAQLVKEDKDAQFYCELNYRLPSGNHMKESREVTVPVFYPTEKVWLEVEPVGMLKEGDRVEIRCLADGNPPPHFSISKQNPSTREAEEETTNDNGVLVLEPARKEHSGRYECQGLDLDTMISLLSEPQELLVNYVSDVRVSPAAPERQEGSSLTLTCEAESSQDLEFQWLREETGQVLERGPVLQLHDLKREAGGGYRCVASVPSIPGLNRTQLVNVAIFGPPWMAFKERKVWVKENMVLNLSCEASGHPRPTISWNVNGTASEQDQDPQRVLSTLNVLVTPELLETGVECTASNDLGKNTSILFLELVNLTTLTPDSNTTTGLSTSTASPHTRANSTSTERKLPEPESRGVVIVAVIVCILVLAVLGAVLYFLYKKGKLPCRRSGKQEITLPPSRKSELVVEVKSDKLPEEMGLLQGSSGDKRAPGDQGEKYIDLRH
UniProt Q09328: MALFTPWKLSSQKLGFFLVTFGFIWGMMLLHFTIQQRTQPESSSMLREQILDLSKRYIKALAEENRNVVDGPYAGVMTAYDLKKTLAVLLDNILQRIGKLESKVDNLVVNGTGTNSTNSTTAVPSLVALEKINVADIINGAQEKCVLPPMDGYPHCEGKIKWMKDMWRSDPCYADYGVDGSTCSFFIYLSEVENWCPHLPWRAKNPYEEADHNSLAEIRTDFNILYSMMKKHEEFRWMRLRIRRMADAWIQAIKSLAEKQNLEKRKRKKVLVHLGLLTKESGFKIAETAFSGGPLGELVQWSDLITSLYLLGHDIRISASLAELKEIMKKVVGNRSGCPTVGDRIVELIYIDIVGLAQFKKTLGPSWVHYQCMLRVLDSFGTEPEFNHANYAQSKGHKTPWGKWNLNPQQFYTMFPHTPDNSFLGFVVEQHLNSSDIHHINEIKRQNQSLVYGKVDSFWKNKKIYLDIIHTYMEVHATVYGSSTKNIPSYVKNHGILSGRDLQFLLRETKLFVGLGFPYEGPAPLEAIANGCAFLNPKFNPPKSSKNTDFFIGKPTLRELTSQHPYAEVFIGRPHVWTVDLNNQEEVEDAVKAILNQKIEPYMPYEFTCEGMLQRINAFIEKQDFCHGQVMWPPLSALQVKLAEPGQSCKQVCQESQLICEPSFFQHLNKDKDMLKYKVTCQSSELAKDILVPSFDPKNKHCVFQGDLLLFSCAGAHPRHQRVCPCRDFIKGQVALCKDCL

Key:
Test in all cases: log2 fold change, soluble protein after heating vs DMSO (PISA); higher = thermal stabilisation; K562 cells, 10 uM, 30 min; active = over 0.2 and 3.5 SD of the protein, either way, in both replicates (recomputed)
IRAK-1-4 Inhibitor I = compound: C1COCCN1CCN2C3=CC=CC=C3N=C2NC(=O)C4=CC(=CC=C4)[N+](=O)[O-] [IRAK-1-4 Inhibitor I]
Summary of the method: (§1)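 Soluble protein was defined as the supernatant after 21,000xg for 90 min. It came from K562 cells at 2×10^6 cells/mL given 10 μM compound for 30 min, heated in aliquots for 3 min across 48°C-58°C, pooled, and extracted in PBS with 0.5% NP-40 at 4°C, and was quantified by TMTpro 16plex LC-MS/MS with equalised channel sums. Thermal stability against control samples, from duplicates, is reported as log2 fold change.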

ibrutinib = compound: C=CC(=O)N1CCC[C@@H](n2nc(-c3ccc(Oc4ccccc4)cc3)c3c(N)ncnc32)C1 [ibrutinib]
Summary of the method: as §1

[1] = compound: CC(=O)c1cnc2ccc(-c3cc(Cl)c(O)c(Cl)c3)nc2c1N[C@H]1CC[C@H](CN(C)C)CC1
Summary of the method: as §1

ralimetinib = compound: CC(C)(C)Cn1c(N)nc2ccc(-c3[nH]c(C(C)(C)C)nc3-c3ccc(F)cc3)nc21 [ralimetinib]
Summary of the method: as §1

[2] = compound: CC(C)(O)CC(=O)NCCn1ccc2ncnc(Nc3ccc(Oc4cccc(C(F)(F)F)c4)c(Cl)c3)c21
Summary of the method: as §1

[3] = compound: CC(C)C1=C2N=C(C=C(N2N=C1)NCC3=CC=CC=C3)NCCCCCCN
Summary of the method: as §1

[4] = compound: CC(C)C[C@@H](C=O)NC(=O)[C@H](CC(C)C)NC(=O)[C@H](CC(C)C)NC(=O)OCc1ccccc1
Summary of the method: as §1

pinometostat = compound: CC(C)N(C[C@H]1O[C@@H](n2cnc3c(N)ncnc32)[C@H](O)[C@@H]1O)[C@H]1C[C@@H](CCc2nc3cc(C(C)(C)C)ccc3[nH]2)C1 [pinometostat]
Summary of the method: as §1

[5] = compound: CC1=C(C(CC(=O)N1)C2=CC=C(C=C2)C(F)(F)F)C(=O)NC3=C(C=C4C(=C3)C=NN4)F
Summary of the method: as §1

[6] = compound: CC1=C(C2=C(C=C1)C(=O)C3=CC=CC=C3N2CCCN)C
Summary of the method: as §1

Target | log2 fold change (IRAK-1-4 Inhibitor I) | log2 fold change (ibrutinib) | log2 fold change [1] | log2 fold change (ralimetinib) | log2 fold change [2] | log2 fold change [3] | log2 fold change [4] | log2 fold change (pinometostat) | log2 fold change [5] | log2 fold change [6]
MAT2B (UniProt Q9NZL9) | inactive: 0.012 | inactive: -0.001 | inactive: -0.026 | inactive: -0.05 | inactive: 0.036 | inactive: 0.049 | inactive: -0.022 | inactive: -0.027 | inactive: 0.003 | inactive: 0.048
MEAF6 isoform 3 (UniProt Q9HAF1) | inactive: -0.027 | inactive: 0.115 | inactive: -0.098 | inactive: 0.07 | inactive: 0.072 | inactive: 0.02 | inactive: 0.055 | inactive: 0.024 | inactive: -0.019 | inactive: 0.085
MED15 (UniProt Q96RN5) | inactive: -0.015 | inactive: -0.017 | inactive: -0.145 | inactive: -0.018 | inactive: 0.003 | inactive: 0.024 | inactive: 0.12 | inactive: 0.017 | inactive: 0.047 | inactive: 0.002
MED7 (UniProt O43513) | inactive: 0.042 | inactive: 0.042 | inactive: 0.001 | inactive: 0.113 | inactive: 0.022 | inactive: -0.078 | inactive: -0.068 | inactive: 0.113 | active: 0.403 | inactive: 0.119
MATR3 (UniProt P43243) | inactive: -0.133 | inactive: 0.046 | inactive: -0.179 | inactive: -0.076 | inactive: 0.008 | inactive: -0.02 | inactive: 0.228 | inactive: 0.044 | inactive: 0.044 | inactive: 0.012
MCM4 (UniProt P33991) | inactive: 0.004 | inactive: -0.037 | inactive: -0.055 | inactive: -0.041 | inactive: -0.038 | inactive: -0.037 | inactive: -0.022 | inactive: -0.009 | inactive: -0.001 | inactive: -0.042
METTL1 (UniProt Q9UBP6) | inactive: 0.034 | inactive: 0.006 | inactive: -0.039 | inactive: 0.041 | inactive: -0.015 | inactive: 0.056 | inactive: -0.123 | inactive: -0.062 | inactive: -0.029 | inactive: -0.066
MAT1A (UniProt Q00266) | inactive: 0.042 | inactive: 0.057 | inactive: 0.009 | inactive: -0.051 | inactive: 0.041 | inactive: 0.114 | inactive: 0.08 | inactive: -0.017 | inactive: 0.014 | inactive: -0.058
MASTL (UniProt Q96GX5) | inactive: -0.001 | inactive: -0.008 | inactive: -0.061 | inactive: 0.001 | active: -0.393 | inactive: -0.028 | inactive: 0.138 | inactive: 0.07 | – | –
METTL16 (UniProt Q86W50) | inactive: 0.01 | inactive: -0.044 | inactive: -0.01 | inactive: 0.031 | inactive: -0.034 | inactive: -0.027 | inactive: -0.015 | inactive: 0.04 | inactive: 0 | inactive: -0.207
MECR (UniProt Q9BV79) | inactive: 0.027 | inactive: 0.027 | inactive: -0.044 | inactive: -0.016 | inactive: -0.012 | inactive: -0.001 | inactive: 0.058 | inactive: -0.028 | inactive: -0.082 | inactive: 0.033
MDH2 (UniProt P40926) | inactive: 0.056 | inactive: 0.022 | inactive: 0.008 | inactive: -0.052 | inactive: 0.033 | inactive: 0.045 | inactive: -0.022 | inactive: -0.049 | inactive: 0.03 | inactive: -0.004
MARS2 (UniProt Q96GW9) | inactive: 0.018 | inactive: 0.053 | inactive: -0.013 | inactive: 0.004 | inactive: 0.008 | inactive: 0.073 | inactive: -0.04 | inactive: 0.02 | inactive: 0.069 | inactive: 0.017
MBLAC2 (UniProt Q68D91) | inactive: -0.015 | inactive: 0.002 | inactive: 0.002 | inactive: -0.019 | inactive: 0.032 | inactive: 0.093 | inactive: -0.028 | inactive: 0.001 | inactive: 0.053 | inactive: 0.03
MGAT4B isoform 3 (UniProt Q9UQ53) | inactive: 0.089 | inactive: -0.063 | inactive: 0.008 | inactive: -0.054 | inactive: -0.031 | inactive: -0.042 | inactive: 0.067 | inactive: -0.013 | inactive: -0.088 | inactive: 0.094
MFAP1 (UniProt P55081) | inactive: 0.035 | inactive: 0.027 | inactive: 0.078 | inactive: -0.046 | inactive: 0.045 | inactive: 0.008 | inactive: 0.106 | inactive: 0.004 | inactive: 0.051 | inactive: -0.138
MGAT2 (UniProt Q10469) | inactive: 0.007 | inactive: 0.039 | inactive: -0.011 | inactive: -0.026 | inactive: -0.054 | inactive: -0.11 | inactive: 0.005 | inactive: 0.007 | inactive: -0.023 | inactive: 0.067
MCM5 (UniProt P33992) | inactive: 0.015 | inactive: -0.025 | inactive: -0.042 | inactive: 0.013 | inactive: -0.04 | inactive: -0.025 | inactive: -0.04 | inactive: -0.022 | inactive: 0.008 | inactive: 0.011
MBNL1 (UniProt Q9NR56) | inactive: 0.007 | inactive: 0.003 | inactive: 0.021 | inactive: -0.022 | inactive: 0.014 | inactive: 0.046 | inactive: -0.002 | inactive: -0.013 | inactive: 0.05 | inactive: 0.029
MED30 (UniProt Q96HR3) | inactive: -0.037 | inactive: 0.022 | inactive: -0.048 | inactive: -0.097 | inactive: -0.035 | inactive: -0.034 | inactive: 0.046 | inactive: 0.067 | inactive: 0.036 | inactive: 0.035
METTL3 (UniProt Q86U44) | inactive: 0.017 | inactive: 0.008 | inactive: -0.019 | inactive: -0.008 | inactive: -0.019 | inactive: 0.013 | inactive: -0.001 | inactive: 0.054 | inactive: -0.006 | inactive: 0.111
ME1 (UniProt P48163) | inactive: 0.025 | inactive: 0.012 | inactive: -0.011 | inactive: -0.026 | inactive: 0.002 | inactive: 0.05 | inactive: -0.002 | inactive: -0.029 | inactive: -0.028 | inactive: 0.008
METTL21A (UniProt Q8WXB1) | inactive: 0.027 | inactive: 0.054 | inactive: 0.04 | inactive: 0.044 | inactive: 0.01 | inactive: 0.021 | inactive: -0.076 | inactive: -0.119 | inactive: 0.007 | inactive: 0.081
MCRIP1 (UniProt I3L4Q0) | inactive: -0.048 | inactive: 0.024 | inactive: -0.046 | inactive: -0.16 | inactive: 0 | inactive: 0.055 | inactive: 0.063 | inactive: -0.026 | inactive: 0.015 | inactive: 0.037
MED24 (UniProt O75448) | inactive: -0.023 | inactive: -0.024 | inactive: -0.208 | inactive: 0.018 | inactive: -0.105 | inactive: -0.117 | inactive: 0.028 | inactive: 0.135 | inactive: -0.051 | inactive: 0.16
MFF (UniProt Q9GZY8) | inactive: 0.038 | inactive: 0.025 | inactive: -0.228 | inactive: 0.018 | inactive: 0.002 | inactive: -0.074 | inactive: 0.048 | inactive: -0.012 | – | inactive: -0.042
MCUR1 (UniProt Q96AQ8) | inactive: 0.011 | inactive: 0.041 | inactive: -0.077 | inactive: 0.118 | inactive: -0.018 | inactive: 0.065 | active: -0.242 | inactive: -0.059 | – | inactive: -0.002
MED20 (UniProt Q9H944) | inactive: 0.033 | inactive: -0.04 | inactive: -0.056 | inactive: 0.024 | inactive: -0.025 | inactive: -0.014 | inactive: -0.014 | inactive: -0.009 | inactive: -0.009 | inactive: 0.033
MCAM (UniProt P43121) | inactive: -0.01 | inactive: 0.046 | inactive: -0.015 | inactive: -0.045 | inactive: 0.033 | inactive: 0.183 | inactive: 0.016 | inactive: -0.068 | inactive: -0.016 | inactive: 0.014
MGAT5 (UniProt Q09328) | inactive: 0.004 | inactive: -0.001 | inactive: -0.01 | inactive: -0.022 | inactive: -0.044 | inactive: -0.036 | inactive: -0.009 | inactive: 0.047 | inactive: -0.024 | inactive: 0.05

Some of the entries so far, as comma-separated lines:
Target,log2 fold change (IRAK-1-4 Inhibitor I),log2 fold change (ibrutinib),log2 fold change [1],log2 fold change (ralimetinib),log2 fold change [2],log2 fold change [3],log2 fold change [4],log2 fold change (pinometostat),log2 fold change [5],log2 fold change [6]
MED15 (UniProt Q96RN5),inactive: -0.015,inactive: -0.017,inactive: -0.145,inactive: -0.018,inactive: 0.003,inactive: 0.024,inactive: 0.12,inactive: 0.017,inactive: 0.047,inactive: 0.002
MED7 (UniProt O43513),inactive: 0.042,inactive: 0.042,inactive: 0.001,inactive: 0.113,inactive: 0.022,inactive: -0.078,inactive: -0.068,inactive: 0.113,active: 0.403,inactive: 0.119
